Patent US8318981B2, “Imidate compound and use thereof for pest control” (Sumitomo Chemical Company, Limited, priority 2007, dated 2012)
Some entries share one result that the patent states for a list of compounds. Some compounds share one range, which may span the group rather than tell each member.

Key:
Assay type in all cases: in vivo
[1] = test system: Spodoptera litura; test: Test Example 1: Spodoptera litura, artificial diet on treated filter paper; conditions: 500 ppm test solution, 2 mL on filter paper; forth-instar larvae; after 6 days
[2] = test system: Adoxophyes orana; test: Test Example 2: Adoxophyes orana, artificial diet on treated filter paper; conditions: 500 ppm test solution, 1 mL on filter paper; first-instar larvae; after 7 days
[3] = test system: Plutella xylostella; test: Test Example 9: Plutella xylostella, spray on cabbage; conditions: 500 ppm test solution, 20 mL sprayed on cabbage; second-instar larvae; after 5 days
[4] = test system: Spodoptera litura; test: Test Example 12: Spodoptera litura, spray on cabbage; conditions: 200 ppm, 20 mL sprayed on cabbage; forth-instar larvae; after 4 days
[5] = test system: Adoxophyes orana; test: Test Example 13: Adoxophyes orana, spray on apple seedling; conditions: 50 ppm, 20 mL sprayed on apple seedling; first-instar larvae; after 7 days
[6] = test system: Culex pipiens pallens; test: Test Example 7: Culex pipiens pallens larvae in treated water; conditions: active ingredient concentration 3.5 ppm in water; last-instar larvae; after 1 day
[7] = test system: Aphis gossypii; test: Test Example 3: Aphis gossypii, spray on cucumber leaves; conditions: 500 ppm test solution, 20 mL sprayed on cucumber; after 6 days
[8] = test system: Nilaparvata lugens; test: Test Example 4: Nilaparvata lugens, spray on rice plant; conditions: 500 ppm test solution, 20 mL/pot sprayed on rice; first-instar larvae; after 6 days
[9] = test system: Musca domestica; test: Test Example 5: Musca domestica, treated filter paper with sucrose bait; conditions: 500 ppm test solution, 0.7 ml on filter paper; female imagoes; after 24 hours
[10] = test system: Blattalla germanica; test: Test Example 6: Blattalla germanica, treated filter paper with sucrose bait; conditions: 500 ppm test solution, 0.7 ml on filter paper; male imagoes; after 6 days
[11] = test system: Bemisia tabaci; test: Test Example 10: Bemisia tabaci, spray on cabbage with larvae; conditions: 200 ppm, 20 mL sprayed on cabbage; after 7 days
[12] = test system: Haemaphysalis longicornis; test: Test Example 11: Haemaphysalis longicornis, treated filter paper pouch; conditions: 0.5 mg compound on filter paper 5x10 cm; non-blood sucking nymphal ticks; after 2 days

| SMILES | index in terms of death rate [1] | index in terms of death rate [2] | index in terms of death rate [3] | index (death rate) [11] | other results |
| --- | --- | --- | --- | --- | --- |
| c1ccc(OC(CC(Sc2ccccc2)Sc2ccccc2)=Nc2ccc3c(c2)CCC3)cc1 [compound 101] | 3 (3: 80-99%) | 3 (3: 80-99%) | 3 (3: 80-99%) |  |  |
| Cc1cccc(SC(CC(=Nc2ccc(-c3ccccc3)cc2)Oc2ccccc2)Sc2cccc(C)c2)c1 [compound 109] | 3 (3: 80-99%) |  |  |  |  |
| c1ccc(OC(CC(Sc2ccccc2)Sc2ccccc2)=Nc2ccc(-c3ccccc3)cc2)cc1 [compound 108] | 3 (3: 80-99%) | 3 (3: 80-99%) | 3 (3: 80-99%) |  |  |
| Cc1cccc(OC(CC(Sc2ccccc2)S(=O)(=O)c2ccccc2)=Nc2ccc(C)c(C)c2)c1 (centres unmarked) [compound 113] |  |  |  |  | index in terms of death rate [4]: 3 (3: 80-99%); index in terms of death rate [5]: 3 (3: 80-99%) |
| Fc1ccc(SC(CC(=Nc2ccccc2)SCCC(F)(F)F)Sc2ccc(F)cc2)cc1 [compound 94] |  | 3 (3: 80-99%) |  |  |  |
| FC(F)(F)SC(CC(Sc1ccccc1)Sc1ccccc1)=Nc1ccccc1 [compound 96] | 3 (3: 80-99%) | 3 (3: 80-99%) | 3 (3: 80-99%) |  | index in terms of death rate [6]: 4 (4: 91-100%) |
| Fc1ccc(SC(CC(=Nc2ccccc2)SCc2cccs2)Sc2ccc(F)cc2)cc1 [compound 98] | 3 (3: 80-99%) | 3 (3: 80-99%) |  |  |  |
| Fc1ccc(SC(CC(=Nc2ccc3c(c2)CCC3)Oc2ccccc2)Sc2ccc(F)cc2)cc1 [compound 102] | 3 (3: 80-99%) | 3 (3: 80-99%) | 3 (3: 80-99%) |  |  |
| Fc1ccc(SC(CC(=Nc2ccccc2)SC2CCCC2)Sc2ccc(F)cc2)cc1 [compound 91] | 3 (3: 80-99%) | 3 (3: 80-99%) | 3 (3: 80-99%) | 3 (index 3: death rate of 90-99%) | index in terms of survival rate [7]: 3 (3: 1-10%); index in terms of survival rate [8]: 3 (3: 1-10%); index in terms of death rate [9]: 3 (3: 70-99%); index in terms of death rate [10]: 4 (4: 100%); death rate [12]: ≥ 90% |
| Fc1ccc(SC(CC(=Nc2ccc(-c3ccccc3)cc2)Oc2ccccc2)Sc2ccc(F)cc2)cc1 [compound 110] | 3 (3: 80-99%) | 3 (3: 80-99%) | 3 (3: 80-99%) |  | index in terms of death rate [6]: 4 (4: 91-100%) |
| c1ccc(OC(CC(Sc2cccs2)Sc2cccs2)=Nc2ccc3c(c2)CCC3)cc1 [compound 106] | 3 (3: 80-99%) | 3 (3: 80-99%) |  |  |  |
| C[Si](C)(C)CSC(CC(Sc1ccc(F)cc1)Sc1ccc(F)cc1)=Nc1ccccc1 [compound 95] | 3 (3: 80-99%) | 3 (3: 80-99%) | 3 (3: 80-99%) |  | index in terms of survival rate [8]: 3 (3: 1-10%); index in terms of death rate [9]: 3 (3: 70-99%); index in terms of death rate [10]: 4 (4: 100%) |
| Cc1cccc(SC(CC(=Nc2ccc3c(c2)CCC3)Oc2ccccc2)Sc2cccc(C)c2)c1 [compound 103] | 3 (3: 80-99%) | 3 (3: 80-99%) | 3 (3: 80-99%) |  |  |
| c1ccc(N=C(CC(Sc2ccccc2)Sc2ccccc2)SCC2CCCC2)cc1 [compound 92] | 3 (3: 80-99%) | 3 (3: 80-99%) | 3 (3: 80-99%) | 3 (index 3: death rate of 90-99%) | index in terms of survival rate [7]: 3 (3: 1-10%); index in terms of survival rate [8]: 3 (3: 1-10%); index in terms of death rate [9]: 3 (3: 70-99%); index in terms of death rate [10]: 4 (4: 100%) |
| FC(F)(F)c1cccc(SC(CC(=Nc2ccc(-c3ccccc3)cc2)Oc2ccccc2)Sc2cccc(C(F)(F)F)c2)c1 [compound 111] | 3 (3: 80-99%) | 3 (3: 80-99%) |  | 3 (index 3: death rate of 90-99%) |  |
| FC(F)(F)c1cccc(SC(CC(=Nc2ccc3c(c2)CCC3)Oc2ccccc2)Sc2cccc(C(F)(F)F)c2)c1 [compound 105] |  |  |  | 3 (index 3: death rate of 90-99%) | index in terms of death rate [4]: 3 (3: 80-99%); index in terms of death rate [5]: 3 (3: 80-99%) |
| c1ccc(OC(CC(Sc2cccs2)Sc2cccs2)=Nc2ccc(-c3ccccc3)cc2)cc1 [compound 112] |  |  |  | 3 (index 3: death rate of 90-99%) | index in terms of death rate [6]: 4 (4: 91-100%); index in terms of death rate [4]: 3 (3: 80-99%); index in terms of death rate [5]: 3 (3: 80-99%) |
| Fc1ccc(SC(CC(=Nc2ccccc2)SCc2ccsc2)Sc2ccc(F)cc2)cc1 [compound 99] | 3 (3: 80-99%) | 3 (3: 80-99%) | 3 (3: 80-99%) |  | index in terms of death rate [6]: 4 (4: 91-100%) |
| c1ccc(N=C(CC(Sc2ccccc2)Sc2ccccc2)SC2CCCC2)cc1 [compound 90] | 3 (3: 80-99%) | 3 (3: 80-99%) | 3 (3: 80-99%) | 3 (index 3: death rate of 90-99%) | index in terms of survival rate [7]: 3 (3: 1-10%); index in terms of survival rate [8]: 3 (3: 1-10%); index in terms of death rate [9]: 3 (3: 70-99%); index in terms of death rate [10]: 4 (4: 100%); index in terms of death rate [6]: 4 (4: 91-100%); death rate [12]: ≥ 90% |
| Fc1ccc(SC(CC(=Nc2ccccc2)SCC2CCOC2)Sc2ccc(F)cc2)cc1 (centres unmarked) [compound 93] |  |  |  |  | index in terms of death rate [5]: 3 (3: 80-99%) |
| COc1ccc(SC(CC(=Nc2ccc3c(c2)CCC3)Oc2ccccc2)Sc2ccc(OC)cc2)cc1 [compound 104] |  |  |  |  | index in terms of death rate [4]: 3 (3: 80-99%); index in terms of death rate [5]: 3 (3: 80-99%) |
| CCCCCCSC(CC(Sc1ccc(F)cc1)Sc1ccc(F)cc1)=Nc1ccccc1 [compound 89] | 3 (3: 80-99%) | 3 (3: 80-99%) | 3 (3: 80-99%) | 3 (index 3: death rate of 90-99%) | index in terms of survival rate [7]: 3 (3: 1-10%); index in terms of survival rate [8]: 3 (3: 1-10%); index in terms of death rate [9]: 3 (3: 70-99%); index in terms of death rate [10]: 4 (4: 100%) |
| CCOC(CC(Sc1cccc(C(F)(F)F)c1)Sc1cccc(C(F)(F)F)c1)=Nc1ccc(-c2ccccc2)cc1 [compound 115] | 3 (3: 80-99%) | 3 (3: 80-99%) |  | 3 (index 3: death rate of 90-99%) |  |
